These are yes or no findings as the source states them, for the method shown. Binding seen in cells or lysates may run through a third protein. A yes stands for co-enrichment or nearness to the bait. Other partners may have been found. For some assays here: A no says only that the protein was not detected with the bait. Sequences can lack the tags named with a protein.
Tests used:
Assay in all cases: affinity purification with mass spectrometry; Halo-tagged bait stably expressed in Flp-In-293 cells; lysate with HL-SAN nuclease 2 U/ml for 2 h at 4 °C; bait captured on Magne HaloTag Beads, eluted with AcTEV Protease; MudPIT; enrichment over cells without transgene by QSPEC (Z-statistic >= 3 and log2 fold change >= 2)
SIN3A-HaloTag (human) = molecular target: T1, SIN3A-HaloTag (human) (UniProt Q96ST3)
T1 sequence: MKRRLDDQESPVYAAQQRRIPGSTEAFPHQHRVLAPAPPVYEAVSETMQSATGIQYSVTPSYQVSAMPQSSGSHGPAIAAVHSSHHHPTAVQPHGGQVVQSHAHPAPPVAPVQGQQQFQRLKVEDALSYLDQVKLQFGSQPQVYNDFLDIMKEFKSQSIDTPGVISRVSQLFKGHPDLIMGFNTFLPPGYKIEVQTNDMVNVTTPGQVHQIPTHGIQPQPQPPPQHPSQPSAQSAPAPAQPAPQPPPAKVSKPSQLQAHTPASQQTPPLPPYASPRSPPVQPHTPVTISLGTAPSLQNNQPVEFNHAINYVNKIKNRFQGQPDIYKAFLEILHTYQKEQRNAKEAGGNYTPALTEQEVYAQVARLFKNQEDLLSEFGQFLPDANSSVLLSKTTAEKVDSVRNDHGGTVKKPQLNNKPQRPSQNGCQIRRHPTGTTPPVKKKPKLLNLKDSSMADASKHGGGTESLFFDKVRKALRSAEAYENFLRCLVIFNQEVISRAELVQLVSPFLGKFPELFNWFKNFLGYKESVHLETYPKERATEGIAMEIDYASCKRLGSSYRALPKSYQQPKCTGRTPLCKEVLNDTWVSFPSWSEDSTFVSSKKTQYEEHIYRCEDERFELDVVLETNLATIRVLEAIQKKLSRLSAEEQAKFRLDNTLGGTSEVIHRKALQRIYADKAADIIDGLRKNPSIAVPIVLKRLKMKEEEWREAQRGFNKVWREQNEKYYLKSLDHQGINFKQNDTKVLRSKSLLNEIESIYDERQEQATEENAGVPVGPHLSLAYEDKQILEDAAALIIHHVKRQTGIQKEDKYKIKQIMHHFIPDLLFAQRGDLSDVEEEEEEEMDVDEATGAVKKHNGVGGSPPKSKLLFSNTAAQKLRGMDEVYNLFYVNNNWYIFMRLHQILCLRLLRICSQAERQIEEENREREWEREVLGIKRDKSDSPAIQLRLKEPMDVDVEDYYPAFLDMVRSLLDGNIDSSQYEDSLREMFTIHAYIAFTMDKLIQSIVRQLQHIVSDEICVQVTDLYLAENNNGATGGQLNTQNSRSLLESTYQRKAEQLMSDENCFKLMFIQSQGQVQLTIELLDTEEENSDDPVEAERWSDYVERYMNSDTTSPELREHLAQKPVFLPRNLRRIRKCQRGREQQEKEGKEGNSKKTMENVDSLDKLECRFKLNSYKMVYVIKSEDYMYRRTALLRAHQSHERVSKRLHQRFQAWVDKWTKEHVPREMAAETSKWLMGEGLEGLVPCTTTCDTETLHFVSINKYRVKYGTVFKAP

Sequences of proteins named here, by UniProt entry; tags and fusion partners are left off.
UniProt Q92769: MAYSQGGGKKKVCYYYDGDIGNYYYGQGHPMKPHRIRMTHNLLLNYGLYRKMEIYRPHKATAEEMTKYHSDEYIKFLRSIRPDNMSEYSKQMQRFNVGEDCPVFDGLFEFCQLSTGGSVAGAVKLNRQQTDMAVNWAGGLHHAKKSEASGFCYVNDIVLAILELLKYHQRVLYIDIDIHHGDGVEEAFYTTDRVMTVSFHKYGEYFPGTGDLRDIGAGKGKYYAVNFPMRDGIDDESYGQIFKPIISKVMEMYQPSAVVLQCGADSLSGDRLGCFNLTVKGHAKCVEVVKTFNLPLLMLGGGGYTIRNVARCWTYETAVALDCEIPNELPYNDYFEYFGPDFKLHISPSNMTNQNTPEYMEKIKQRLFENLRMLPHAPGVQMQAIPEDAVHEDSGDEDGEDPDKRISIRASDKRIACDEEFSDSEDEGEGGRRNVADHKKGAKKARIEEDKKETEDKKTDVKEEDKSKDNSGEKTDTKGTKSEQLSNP
UniProt O00505: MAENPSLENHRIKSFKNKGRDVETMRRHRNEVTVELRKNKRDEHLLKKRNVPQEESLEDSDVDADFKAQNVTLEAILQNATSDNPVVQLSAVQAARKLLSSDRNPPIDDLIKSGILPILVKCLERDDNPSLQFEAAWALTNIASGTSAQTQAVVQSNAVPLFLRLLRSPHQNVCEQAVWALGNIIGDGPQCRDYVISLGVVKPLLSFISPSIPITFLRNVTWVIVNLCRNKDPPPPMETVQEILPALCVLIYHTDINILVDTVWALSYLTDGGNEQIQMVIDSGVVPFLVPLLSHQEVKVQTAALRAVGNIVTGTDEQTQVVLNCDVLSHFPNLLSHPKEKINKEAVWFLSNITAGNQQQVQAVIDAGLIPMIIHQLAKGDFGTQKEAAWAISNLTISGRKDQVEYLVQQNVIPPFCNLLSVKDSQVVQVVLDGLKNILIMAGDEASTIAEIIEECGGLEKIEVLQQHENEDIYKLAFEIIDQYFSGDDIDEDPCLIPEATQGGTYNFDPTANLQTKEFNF
UniProt Q14974: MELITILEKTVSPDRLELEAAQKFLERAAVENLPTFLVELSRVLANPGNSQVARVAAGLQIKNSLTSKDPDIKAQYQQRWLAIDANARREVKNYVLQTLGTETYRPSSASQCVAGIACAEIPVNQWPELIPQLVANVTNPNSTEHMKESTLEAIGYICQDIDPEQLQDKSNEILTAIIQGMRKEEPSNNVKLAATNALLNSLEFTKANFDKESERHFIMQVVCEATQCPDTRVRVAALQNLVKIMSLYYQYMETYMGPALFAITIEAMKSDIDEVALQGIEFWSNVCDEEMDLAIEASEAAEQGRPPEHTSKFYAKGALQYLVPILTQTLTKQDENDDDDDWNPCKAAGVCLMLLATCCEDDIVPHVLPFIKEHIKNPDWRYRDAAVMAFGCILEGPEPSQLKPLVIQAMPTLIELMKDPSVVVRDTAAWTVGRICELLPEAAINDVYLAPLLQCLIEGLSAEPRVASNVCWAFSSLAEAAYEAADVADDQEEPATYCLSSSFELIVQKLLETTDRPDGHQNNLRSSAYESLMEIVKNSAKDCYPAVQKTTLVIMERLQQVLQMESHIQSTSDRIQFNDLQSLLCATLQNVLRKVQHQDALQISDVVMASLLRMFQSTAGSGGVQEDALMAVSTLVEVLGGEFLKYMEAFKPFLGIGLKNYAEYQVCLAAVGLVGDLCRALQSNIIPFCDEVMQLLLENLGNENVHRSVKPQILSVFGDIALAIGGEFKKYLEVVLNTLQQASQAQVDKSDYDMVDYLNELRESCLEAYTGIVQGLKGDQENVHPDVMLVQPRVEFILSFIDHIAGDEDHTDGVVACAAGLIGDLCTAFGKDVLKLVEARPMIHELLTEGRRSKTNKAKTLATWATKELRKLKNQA
UniProt Q96QT6: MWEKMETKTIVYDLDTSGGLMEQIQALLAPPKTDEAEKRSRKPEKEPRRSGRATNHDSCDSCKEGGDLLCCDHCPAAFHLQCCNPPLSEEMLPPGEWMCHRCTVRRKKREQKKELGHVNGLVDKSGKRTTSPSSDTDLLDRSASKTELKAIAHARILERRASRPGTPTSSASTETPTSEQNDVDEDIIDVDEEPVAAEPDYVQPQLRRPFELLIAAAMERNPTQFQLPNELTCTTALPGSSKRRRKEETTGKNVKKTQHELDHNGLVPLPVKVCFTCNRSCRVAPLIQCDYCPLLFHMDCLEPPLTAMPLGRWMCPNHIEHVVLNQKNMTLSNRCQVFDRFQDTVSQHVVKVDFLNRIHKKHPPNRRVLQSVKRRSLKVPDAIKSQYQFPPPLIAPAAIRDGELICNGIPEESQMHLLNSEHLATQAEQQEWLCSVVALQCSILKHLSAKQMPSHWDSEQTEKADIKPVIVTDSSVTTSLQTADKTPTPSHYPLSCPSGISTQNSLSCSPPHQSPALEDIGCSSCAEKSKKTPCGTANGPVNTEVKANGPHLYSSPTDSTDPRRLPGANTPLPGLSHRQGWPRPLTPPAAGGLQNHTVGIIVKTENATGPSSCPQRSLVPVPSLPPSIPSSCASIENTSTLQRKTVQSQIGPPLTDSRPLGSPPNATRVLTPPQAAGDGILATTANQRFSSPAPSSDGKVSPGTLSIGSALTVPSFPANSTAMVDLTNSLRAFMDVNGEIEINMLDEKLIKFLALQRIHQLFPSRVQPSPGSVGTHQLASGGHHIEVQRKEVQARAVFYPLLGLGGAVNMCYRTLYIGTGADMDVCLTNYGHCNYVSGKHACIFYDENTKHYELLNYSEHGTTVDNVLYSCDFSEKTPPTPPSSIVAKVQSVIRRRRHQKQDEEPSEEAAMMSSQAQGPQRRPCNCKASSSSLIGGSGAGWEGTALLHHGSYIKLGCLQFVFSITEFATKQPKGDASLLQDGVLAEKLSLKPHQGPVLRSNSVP
UniProt Q13547: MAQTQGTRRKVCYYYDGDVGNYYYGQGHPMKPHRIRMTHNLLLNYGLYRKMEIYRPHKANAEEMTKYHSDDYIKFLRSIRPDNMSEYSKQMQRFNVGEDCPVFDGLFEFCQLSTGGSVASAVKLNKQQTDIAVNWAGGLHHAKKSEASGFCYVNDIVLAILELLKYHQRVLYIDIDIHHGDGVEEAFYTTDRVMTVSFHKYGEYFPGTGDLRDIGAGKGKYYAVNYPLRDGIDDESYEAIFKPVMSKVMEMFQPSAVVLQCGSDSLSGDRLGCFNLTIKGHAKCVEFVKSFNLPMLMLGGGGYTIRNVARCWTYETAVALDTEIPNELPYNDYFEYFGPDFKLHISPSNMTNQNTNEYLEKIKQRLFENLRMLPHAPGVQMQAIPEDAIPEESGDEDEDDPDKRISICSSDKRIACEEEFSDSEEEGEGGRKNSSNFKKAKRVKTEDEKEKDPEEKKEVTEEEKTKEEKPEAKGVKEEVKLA
UniProt O00629: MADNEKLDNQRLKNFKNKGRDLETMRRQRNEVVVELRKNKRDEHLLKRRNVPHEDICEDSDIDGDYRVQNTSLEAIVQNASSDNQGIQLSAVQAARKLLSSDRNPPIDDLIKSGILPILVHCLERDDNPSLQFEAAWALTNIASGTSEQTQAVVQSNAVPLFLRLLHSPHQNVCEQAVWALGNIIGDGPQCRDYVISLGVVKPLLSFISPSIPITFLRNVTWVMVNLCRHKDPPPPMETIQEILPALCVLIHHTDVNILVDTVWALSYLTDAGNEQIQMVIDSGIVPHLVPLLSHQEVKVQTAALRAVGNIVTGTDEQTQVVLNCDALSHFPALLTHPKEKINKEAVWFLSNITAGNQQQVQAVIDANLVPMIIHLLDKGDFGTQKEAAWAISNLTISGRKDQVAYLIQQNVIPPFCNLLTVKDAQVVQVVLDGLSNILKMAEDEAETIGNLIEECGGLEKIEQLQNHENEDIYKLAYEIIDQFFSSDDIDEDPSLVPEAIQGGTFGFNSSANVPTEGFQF
UniProt Q09028: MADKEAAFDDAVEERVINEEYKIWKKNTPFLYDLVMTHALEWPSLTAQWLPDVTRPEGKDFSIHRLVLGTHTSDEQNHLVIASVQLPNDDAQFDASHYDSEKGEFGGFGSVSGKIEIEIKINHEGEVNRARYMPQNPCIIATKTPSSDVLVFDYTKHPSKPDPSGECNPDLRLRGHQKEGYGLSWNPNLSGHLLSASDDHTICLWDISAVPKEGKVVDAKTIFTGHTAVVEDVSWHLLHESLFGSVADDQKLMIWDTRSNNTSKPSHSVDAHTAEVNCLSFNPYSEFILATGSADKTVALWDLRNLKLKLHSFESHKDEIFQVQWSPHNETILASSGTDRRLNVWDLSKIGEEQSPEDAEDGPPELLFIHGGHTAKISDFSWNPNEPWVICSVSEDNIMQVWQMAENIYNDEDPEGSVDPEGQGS

SIN3B_2-HaloTag (human) = molecular target: T2, SIN3B_2-HaloTag (human) (UniProt O75182)
T2 sequence: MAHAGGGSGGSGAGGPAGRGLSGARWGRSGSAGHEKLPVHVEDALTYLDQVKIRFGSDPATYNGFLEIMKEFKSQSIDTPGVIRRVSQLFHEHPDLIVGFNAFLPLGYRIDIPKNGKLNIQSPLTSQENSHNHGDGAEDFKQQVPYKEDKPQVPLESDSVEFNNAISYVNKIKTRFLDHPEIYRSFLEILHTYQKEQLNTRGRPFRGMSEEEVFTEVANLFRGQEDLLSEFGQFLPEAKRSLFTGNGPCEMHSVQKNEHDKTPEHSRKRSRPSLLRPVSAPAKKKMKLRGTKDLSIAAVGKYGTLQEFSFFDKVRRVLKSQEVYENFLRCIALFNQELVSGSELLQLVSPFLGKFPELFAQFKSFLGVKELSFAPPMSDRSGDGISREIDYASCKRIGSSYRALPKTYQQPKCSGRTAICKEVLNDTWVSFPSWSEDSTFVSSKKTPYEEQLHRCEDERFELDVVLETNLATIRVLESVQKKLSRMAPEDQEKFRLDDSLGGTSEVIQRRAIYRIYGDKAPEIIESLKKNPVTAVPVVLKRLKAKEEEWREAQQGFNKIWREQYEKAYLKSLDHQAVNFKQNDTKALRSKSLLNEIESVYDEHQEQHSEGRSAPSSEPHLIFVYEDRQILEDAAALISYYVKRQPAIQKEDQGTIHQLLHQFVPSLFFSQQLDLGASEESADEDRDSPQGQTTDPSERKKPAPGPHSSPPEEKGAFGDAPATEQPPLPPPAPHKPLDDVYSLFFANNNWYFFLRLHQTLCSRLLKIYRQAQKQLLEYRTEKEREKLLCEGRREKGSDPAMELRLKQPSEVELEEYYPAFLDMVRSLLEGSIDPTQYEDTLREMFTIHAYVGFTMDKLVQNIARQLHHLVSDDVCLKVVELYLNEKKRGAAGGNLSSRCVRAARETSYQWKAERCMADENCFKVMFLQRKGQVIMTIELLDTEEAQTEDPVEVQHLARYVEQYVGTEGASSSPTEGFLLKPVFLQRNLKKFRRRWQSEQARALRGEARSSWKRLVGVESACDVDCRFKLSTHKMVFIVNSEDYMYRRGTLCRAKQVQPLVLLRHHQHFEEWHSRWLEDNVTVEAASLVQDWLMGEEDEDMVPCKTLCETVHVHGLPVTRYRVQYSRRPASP

SIN3B_1-HaloTag (human) = molecular target: T3, SIN3B_1-HaloTag (human) (UniProt O75182)
T3 sequence: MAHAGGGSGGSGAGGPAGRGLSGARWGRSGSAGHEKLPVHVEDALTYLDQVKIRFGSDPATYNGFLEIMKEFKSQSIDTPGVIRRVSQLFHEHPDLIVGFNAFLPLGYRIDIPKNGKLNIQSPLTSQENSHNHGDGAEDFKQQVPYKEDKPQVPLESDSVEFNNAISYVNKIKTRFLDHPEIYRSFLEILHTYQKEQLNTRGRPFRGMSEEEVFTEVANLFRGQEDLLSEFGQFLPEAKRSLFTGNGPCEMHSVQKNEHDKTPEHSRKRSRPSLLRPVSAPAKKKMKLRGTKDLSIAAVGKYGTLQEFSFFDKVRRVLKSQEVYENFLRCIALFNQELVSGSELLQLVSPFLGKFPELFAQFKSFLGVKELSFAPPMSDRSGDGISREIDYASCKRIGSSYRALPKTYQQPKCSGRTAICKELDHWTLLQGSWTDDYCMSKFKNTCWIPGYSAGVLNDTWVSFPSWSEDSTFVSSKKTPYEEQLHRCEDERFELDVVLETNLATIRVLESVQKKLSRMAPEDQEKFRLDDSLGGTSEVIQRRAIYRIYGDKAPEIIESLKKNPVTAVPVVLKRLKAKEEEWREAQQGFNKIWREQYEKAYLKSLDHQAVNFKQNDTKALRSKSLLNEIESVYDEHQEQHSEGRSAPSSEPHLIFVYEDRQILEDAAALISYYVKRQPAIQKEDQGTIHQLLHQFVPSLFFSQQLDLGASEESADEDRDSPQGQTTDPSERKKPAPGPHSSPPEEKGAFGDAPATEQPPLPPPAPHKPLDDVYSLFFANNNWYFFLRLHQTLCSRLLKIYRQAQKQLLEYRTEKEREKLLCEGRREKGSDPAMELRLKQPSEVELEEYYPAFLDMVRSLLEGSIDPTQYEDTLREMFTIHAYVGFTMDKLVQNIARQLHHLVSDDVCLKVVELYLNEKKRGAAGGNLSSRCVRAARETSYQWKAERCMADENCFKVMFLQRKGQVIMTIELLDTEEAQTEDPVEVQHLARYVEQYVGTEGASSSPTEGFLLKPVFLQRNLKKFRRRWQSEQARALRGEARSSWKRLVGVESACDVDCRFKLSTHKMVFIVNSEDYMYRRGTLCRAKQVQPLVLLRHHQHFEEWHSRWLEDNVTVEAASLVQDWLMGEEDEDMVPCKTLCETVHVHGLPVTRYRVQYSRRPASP

Row | Substance | binding (SIN3A-HaloTag (human)) | binding (SIN3B_2-HaloTag (human)) | binding (SIN3B_1-HaloTag (human))
1 | HDAC2 (from UniProt Q92769 1-488) | binds | binds | binds weakly
2 | KPNA3 (from UniProt O00505 1-521) | no binding | binds | binds
3 | KPNB1 (from UniProt Q14974 1-876) | no binding | binds | binds
4 | PHF12 (from UniProt Q96QT6 1-1004) |  | binds | 
5 | TNRC18 (from UniProt O15417 1-2968) | binds |  | 

Other lines, results leading:

Row | binding (SIN3A-HaloTag (human)) | binding (SIN3B_2-HaloTag (human)) | binding (SIN3B_1-HaloTag (human)) | Substance
6 | binds | binds | binds weakly | HDAC1 (from UniProt Q13547 1-482)
7 | no binding | binds | binds | KPNA4 (from UniProt O00629 1-521)
8 | binds | binds | binds | RBBP4 (from UniProt Q09028 1-425)

— article PMC8143632
